Measurements reported in patent US20040170614A1.
Results are given in words; binding and its absence hold for the method and conditions named. Binding seen in cells or lysates may run through a third protein. Some entries that bind do so weakly or less than the wild type.

The chains behind the UniProt entries cited, without tags or fusion partners. Where a name states a change or a piece, a line headed by the entry shows the natural chain unless it says otherwise.
UniProt P25942: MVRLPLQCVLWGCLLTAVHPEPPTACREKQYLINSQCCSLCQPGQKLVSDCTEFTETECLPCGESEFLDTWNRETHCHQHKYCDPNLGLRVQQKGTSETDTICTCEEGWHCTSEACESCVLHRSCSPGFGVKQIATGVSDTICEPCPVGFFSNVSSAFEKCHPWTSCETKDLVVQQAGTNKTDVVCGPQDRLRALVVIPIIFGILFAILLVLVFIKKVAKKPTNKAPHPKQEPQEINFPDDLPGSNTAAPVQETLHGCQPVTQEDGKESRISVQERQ
UniProt P27512: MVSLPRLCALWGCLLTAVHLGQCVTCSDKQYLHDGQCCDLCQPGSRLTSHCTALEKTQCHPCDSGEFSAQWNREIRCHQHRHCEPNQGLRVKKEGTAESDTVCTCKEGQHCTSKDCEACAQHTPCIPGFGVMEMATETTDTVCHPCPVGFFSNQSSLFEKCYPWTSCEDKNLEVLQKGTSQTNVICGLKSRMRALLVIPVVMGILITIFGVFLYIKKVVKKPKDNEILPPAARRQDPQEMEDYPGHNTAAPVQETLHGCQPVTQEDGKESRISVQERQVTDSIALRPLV

Molecular target: human-mouse hybrid CD40 (hmCD40) (human; mouse) (UniProt P25942+P27512)
Test: co-immunoprecipitation with anti-hCD40 from membrane microdomains of hCD154-stimulated CH12.LX cells, Western blot for TRAF6

B1: TRAF6 (protein, mouse, UniProt P70196 1-530, looked up)
chain: MSLLNCENSCGSSQSSSDCCAAMAASCSAAVKDDSVSGSASTGNLSSSFMEEIQGYDVEFDPPLESKYECPICLMALREAVQTPCGHRFCKACIIKSIRDAGHKCPVDNEILLENQLFPDNFAKREILSLTVKCPNKGCLQKMELRHLEDHQVHCEFALVNCPQCQRPFQKCQVNTHIIEDCPRRQVSCVNCAVSMAYEEKEIHDQSCPLANIICEYCGTILIREQMPNHYDLDCPTAPIPCTFSVFGCHEKMQRNHLARHLQENTQLHMRLLAQAVHNVNLALRPCDAASPSRGCRPEDPNYEETIKQLESRLVRQDHQIRELTAKMETQSMYVGELKRTIRTLEDKVAEMEAQQCNGIYIWKIGNFGMHLKSQEEERPVVIHSPGFYTGRPGYKLCMRLHLQLPTAQRCANYISLFVHTMQGEYDSHLPWPFQGTIRLTILDQSEALIRQNHEEVMDAKPELLAFQRPTIPRNPKGFGYVTFMHLEALRQGTFIKDDTLLVRCEVSTRFDMGGLRKEGFQPRSTDAGV
B1 was tested, and the binding was “binds”.
